Assay results from paper doi:10.1101/2022.04.29.490031.
These are yes or no findings as the source states them, for the method shown. For some of these results: In cells and extracts the contact can be indirect. Some entries that bind do so weakly or less than the wild type. For some of these results: Where a sequence is shown, tags or fusion partners need not be part of it.

Columns and labels:
[1] = target: T1, SPTLC1, endogenous (human (endogenous in Flp-In T-REx 293)) (UniProt O15269); test: native gel or EMSA
T1 sequence: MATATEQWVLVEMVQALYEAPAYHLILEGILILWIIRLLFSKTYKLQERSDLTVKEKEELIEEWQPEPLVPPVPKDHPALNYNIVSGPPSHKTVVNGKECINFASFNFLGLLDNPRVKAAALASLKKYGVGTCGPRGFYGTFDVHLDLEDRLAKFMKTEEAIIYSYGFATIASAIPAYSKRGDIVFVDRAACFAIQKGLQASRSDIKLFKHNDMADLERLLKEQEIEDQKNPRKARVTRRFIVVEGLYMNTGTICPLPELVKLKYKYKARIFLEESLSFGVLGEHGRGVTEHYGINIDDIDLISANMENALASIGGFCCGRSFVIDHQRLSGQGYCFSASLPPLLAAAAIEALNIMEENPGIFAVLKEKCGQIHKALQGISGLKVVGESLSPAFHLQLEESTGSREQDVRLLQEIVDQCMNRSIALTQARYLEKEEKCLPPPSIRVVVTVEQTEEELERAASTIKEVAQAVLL

[2] = target: SPTLC1^FLAG C133W (HSAN1 variant) (UniProt O15269); test: native gel or EMSA
[3] = target: T2, SPTLC1^FLAG F40S41del (ALS variant) (UniProt O15269); test: native gel or EMSA
T2 sequence: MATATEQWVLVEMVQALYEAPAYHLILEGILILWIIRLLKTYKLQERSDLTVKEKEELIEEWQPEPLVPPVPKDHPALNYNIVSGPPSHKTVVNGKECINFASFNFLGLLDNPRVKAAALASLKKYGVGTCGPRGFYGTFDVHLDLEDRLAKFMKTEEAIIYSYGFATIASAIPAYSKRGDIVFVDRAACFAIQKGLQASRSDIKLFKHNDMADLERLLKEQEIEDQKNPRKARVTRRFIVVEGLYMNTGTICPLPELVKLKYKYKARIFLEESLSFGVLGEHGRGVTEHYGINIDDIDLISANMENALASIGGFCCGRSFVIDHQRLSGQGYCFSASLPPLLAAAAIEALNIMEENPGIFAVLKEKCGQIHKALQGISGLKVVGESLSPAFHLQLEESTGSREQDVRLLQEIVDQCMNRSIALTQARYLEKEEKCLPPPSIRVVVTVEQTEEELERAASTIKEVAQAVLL

[4] = target: T3, SPTLC1^FLAG L39del (ALS variant) (UniProt O15269); test: native gel or EMSA
T3 sequence: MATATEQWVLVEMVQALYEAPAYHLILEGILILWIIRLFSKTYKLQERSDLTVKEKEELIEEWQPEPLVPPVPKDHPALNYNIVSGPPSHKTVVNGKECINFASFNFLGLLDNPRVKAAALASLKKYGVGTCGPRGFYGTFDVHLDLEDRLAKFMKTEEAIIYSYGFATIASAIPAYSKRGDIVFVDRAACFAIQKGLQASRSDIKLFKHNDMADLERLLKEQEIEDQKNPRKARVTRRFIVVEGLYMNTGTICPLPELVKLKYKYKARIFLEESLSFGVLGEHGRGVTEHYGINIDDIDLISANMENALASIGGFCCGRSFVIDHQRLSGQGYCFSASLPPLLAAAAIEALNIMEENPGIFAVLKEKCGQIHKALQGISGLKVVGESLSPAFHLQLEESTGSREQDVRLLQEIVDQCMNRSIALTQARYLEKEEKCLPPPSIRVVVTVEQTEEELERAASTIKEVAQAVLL

[5] = target: SPTLC1^FLAG S331F (HSAN1 variant) (UniProt O15269); test: native gel or EMSA
[6] = target: SPTLC1^FLAG Y23F (ALS variant) (UniProt O15269); test: native gel or EMSA
[7] = target: T4, WT-SPTLC1^FLAG (serine-palmitoyltransferase subunit 1, wild type, C-terminal triple FLAG-tag) (UniProt O15269); test: native gel or EMSA
T4 sequence: T1 sequence

[8] = target: SPTLC1^FLAG C133W (HSAN1 variant) (UniProt O15269); test: co-IP
[9] = target: T2, SPTLC1^FLAG F40S41del (ALS variant); test: co-IP
[10] = target: T3, SPTLC1^FLAG L39del (ALS variant); test: co-IP
[11] = target: SPTLC1^FLAG S331F (HSAN1 variant) (UniProt O15269); test: co-IP
[12] = target: SPTLC1^FLAG Y23F (ALS variant) (UniProt O15269); test: co-IP
[13] = target: T4, WT-SPTLC1^FLAG (serine-palmitoyltransferase subunit 1, wild type, C-terminal triple FLAG-tag); test: co-IP

Measured: binding

B1: SPTLC2 (serine-palmitoyltransferase subunit 2) (protein, UniProt O15270 1-562)
chain: MRPEPGGCCCRRTVRANGCVANGEVRNGYVRSSAAAAAAAAAGQIHHVTQNGGLYKRPFNEAFEETPMLVAVLTYVGYGVLTLFGYLRDFLRYWRIEKCHHATEREEQKDFVSLYQDFENFYTRNLYMRIRDNWNRPICSVPGARVDIMERQSHDYNWSFKYTGNIIKGVINMGSYNYLGFARNTGSCQEAAAKVLEEYGAGVCSTRQEIGNLDKHEELEELVARFLGVEAAMAYGMGFATNSMNIPALVGKGCLILSDELNHASLVLGARLSGATIRIFKHNNMQSLEKLLKDAIVYGQPRTRRPWKKILILVEGIYSMEGSIVRLPEVIALKKKYKAYLYLDEAHSIGALGPTGRGVVEYFGLDPEDVDVMMGTFTKSFGASGGYIGGKKELIDYLRTHSHSAVYATSLSPPVVEQIITSMKCIMGQDGTSLGKECVQQLAENTRYFRRRLKEMGFIIYGNEDSPVVPLMLYMPAKIGAFGREMLKRNIGVVVVGFPATPIIESRARFCLSAAHTKEILDTALKEIDEVGDLLQLKYSRHRLVPLLDRPFDETTYEETED
binds: all assays above
